Measured values: patent US20240010687A1 (University of Washington, published 2024)
Results are given in words; binding and its absence hold for the method and conditions named. Some binding calls cover weakened binding; strength is not graded here.

Target: T1, C5C3_2412_Axle (C5-C3)
T1 sequence: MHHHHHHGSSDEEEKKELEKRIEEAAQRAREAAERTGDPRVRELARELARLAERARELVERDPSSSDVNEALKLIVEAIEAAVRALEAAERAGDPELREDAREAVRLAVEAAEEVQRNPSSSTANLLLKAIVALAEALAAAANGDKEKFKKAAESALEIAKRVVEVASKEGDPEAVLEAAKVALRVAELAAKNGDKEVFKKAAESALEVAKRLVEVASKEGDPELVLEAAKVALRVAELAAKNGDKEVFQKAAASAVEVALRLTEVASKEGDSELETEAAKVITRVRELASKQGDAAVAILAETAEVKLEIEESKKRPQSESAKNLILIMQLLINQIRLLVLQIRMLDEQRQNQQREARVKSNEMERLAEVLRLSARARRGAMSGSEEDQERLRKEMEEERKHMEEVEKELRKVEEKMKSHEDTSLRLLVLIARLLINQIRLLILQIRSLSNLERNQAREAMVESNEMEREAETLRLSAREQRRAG
Assay: SEC, SAXS, biolayer interferometry binding kinetics and negative stain EM

binding: binds
B1: C5C3_2412_Ring (C5-C3) (designed binder)
chain: MGDRSGHAKKLKTHLENLRRHLDRLDKHAKQLRDILSEHPHDERVKDSIDLLEESVRIVKISIKIFEASVRALLWAINKEAEELAKSPDPEDLKRAVELAEAVVRADPGSNLSKKALEIILRAAAELAKLPDPDALAAAARAASKVQQEMPGSNLAKAAQEIMRQASRAAEEAARRAKETLEKAEKDGDPETALKAVETVVKVARALNQIATAAGSEEAQERAARVAAEAAELALRVFELAEKQGDPEVARRARELIEKVLDLLLSLLTQILQTATKVIDDSNKLLEKLRRSHHHDPKLVETHVELVKRHERLVRQHLKIALMHALAVLELAFPDAEAAKLASKAAKEAEELCKQSTDERLCDLLAELAALLIELAARYPDSEAAKLALKAALEAIELCKQSTDEELCEELVKLAQKLIELAKRYPDSEEAKRALKEAKELIEQCKESTDEDECRELVKRAEELIREAKEGSHHHHHH
